# The other results are listed elsewhere or left out.
# Protein sequences, listed by entry. Tags and fused reporters are not part of them. Lines headed by an entry give the natural chain unless they say otherwise; changes in a name come on top.
# UniProt P62316, whole entry, looked up: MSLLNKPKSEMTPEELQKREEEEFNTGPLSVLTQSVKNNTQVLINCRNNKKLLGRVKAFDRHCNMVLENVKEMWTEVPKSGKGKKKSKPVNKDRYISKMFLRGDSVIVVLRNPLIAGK
# UniProt Q9UQE7: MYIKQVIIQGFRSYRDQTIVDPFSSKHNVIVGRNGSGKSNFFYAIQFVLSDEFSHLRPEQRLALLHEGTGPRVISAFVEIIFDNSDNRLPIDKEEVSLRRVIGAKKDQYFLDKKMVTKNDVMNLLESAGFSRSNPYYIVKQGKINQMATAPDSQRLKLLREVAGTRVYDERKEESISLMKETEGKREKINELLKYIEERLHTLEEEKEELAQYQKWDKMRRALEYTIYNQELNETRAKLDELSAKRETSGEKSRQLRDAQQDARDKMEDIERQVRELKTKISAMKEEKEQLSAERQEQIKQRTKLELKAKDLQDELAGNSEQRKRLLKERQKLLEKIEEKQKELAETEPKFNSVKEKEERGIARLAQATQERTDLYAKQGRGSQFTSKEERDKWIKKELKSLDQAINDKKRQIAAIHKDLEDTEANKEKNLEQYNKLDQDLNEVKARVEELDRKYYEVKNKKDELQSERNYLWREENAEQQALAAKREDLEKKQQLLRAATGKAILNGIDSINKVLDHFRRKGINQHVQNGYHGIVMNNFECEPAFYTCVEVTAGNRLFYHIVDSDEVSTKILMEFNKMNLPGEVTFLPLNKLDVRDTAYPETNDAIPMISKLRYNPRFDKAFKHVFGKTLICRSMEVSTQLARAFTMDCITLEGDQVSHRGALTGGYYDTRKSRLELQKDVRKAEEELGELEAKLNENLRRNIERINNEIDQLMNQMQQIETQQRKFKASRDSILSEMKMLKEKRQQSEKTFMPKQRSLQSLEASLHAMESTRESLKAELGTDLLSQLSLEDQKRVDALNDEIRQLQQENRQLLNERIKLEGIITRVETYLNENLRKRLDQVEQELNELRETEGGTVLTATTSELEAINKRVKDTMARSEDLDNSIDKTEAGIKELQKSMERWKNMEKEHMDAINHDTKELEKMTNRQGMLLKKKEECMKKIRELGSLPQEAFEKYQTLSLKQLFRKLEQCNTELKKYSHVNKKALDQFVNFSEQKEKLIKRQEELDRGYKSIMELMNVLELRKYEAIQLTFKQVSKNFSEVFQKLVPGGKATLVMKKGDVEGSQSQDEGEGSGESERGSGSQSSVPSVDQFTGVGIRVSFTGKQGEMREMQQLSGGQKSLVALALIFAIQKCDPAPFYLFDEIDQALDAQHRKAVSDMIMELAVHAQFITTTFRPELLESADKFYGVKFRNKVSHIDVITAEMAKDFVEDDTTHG
# UniProt O60504: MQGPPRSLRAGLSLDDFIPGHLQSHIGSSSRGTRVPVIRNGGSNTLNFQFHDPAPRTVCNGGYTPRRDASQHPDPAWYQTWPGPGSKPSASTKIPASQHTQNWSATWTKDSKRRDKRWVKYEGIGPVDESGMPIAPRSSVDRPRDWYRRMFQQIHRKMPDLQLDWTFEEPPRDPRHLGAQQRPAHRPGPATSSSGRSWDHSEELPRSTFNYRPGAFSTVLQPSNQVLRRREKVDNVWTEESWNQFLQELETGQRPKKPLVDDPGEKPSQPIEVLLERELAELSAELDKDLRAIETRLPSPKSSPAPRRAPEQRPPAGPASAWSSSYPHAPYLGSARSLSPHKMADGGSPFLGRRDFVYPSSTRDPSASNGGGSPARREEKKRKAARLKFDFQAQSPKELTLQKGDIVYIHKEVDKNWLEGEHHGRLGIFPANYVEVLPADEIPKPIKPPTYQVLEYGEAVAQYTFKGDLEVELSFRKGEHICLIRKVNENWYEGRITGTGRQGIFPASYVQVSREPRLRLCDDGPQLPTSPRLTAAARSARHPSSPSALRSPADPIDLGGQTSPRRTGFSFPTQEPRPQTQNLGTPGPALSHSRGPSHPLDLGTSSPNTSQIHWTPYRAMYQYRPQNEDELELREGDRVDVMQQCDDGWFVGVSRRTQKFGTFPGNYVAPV
# UniProt P62314, whole entry, looked up: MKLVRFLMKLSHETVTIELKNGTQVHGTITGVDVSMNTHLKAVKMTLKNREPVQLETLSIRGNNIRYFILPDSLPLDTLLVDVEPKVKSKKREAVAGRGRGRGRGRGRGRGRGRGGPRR
# UniProt Q13596, whole entry, looked up: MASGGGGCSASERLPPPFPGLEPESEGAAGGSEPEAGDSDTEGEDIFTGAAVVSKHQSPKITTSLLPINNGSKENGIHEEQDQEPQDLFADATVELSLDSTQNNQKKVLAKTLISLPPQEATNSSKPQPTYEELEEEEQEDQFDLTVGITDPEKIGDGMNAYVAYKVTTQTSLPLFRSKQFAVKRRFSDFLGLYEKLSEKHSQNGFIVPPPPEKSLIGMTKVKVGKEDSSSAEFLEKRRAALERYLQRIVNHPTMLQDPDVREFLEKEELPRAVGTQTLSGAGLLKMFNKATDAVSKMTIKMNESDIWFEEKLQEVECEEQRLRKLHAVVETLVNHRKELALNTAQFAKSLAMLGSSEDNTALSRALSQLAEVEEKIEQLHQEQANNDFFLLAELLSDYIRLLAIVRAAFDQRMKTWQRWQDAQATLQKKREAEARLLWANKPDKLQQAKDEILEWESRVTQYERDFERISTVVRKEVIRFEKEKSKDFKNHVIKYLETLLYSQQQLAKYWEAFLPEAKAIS
# UniProt Q8TAQ2, whole entry, looked up: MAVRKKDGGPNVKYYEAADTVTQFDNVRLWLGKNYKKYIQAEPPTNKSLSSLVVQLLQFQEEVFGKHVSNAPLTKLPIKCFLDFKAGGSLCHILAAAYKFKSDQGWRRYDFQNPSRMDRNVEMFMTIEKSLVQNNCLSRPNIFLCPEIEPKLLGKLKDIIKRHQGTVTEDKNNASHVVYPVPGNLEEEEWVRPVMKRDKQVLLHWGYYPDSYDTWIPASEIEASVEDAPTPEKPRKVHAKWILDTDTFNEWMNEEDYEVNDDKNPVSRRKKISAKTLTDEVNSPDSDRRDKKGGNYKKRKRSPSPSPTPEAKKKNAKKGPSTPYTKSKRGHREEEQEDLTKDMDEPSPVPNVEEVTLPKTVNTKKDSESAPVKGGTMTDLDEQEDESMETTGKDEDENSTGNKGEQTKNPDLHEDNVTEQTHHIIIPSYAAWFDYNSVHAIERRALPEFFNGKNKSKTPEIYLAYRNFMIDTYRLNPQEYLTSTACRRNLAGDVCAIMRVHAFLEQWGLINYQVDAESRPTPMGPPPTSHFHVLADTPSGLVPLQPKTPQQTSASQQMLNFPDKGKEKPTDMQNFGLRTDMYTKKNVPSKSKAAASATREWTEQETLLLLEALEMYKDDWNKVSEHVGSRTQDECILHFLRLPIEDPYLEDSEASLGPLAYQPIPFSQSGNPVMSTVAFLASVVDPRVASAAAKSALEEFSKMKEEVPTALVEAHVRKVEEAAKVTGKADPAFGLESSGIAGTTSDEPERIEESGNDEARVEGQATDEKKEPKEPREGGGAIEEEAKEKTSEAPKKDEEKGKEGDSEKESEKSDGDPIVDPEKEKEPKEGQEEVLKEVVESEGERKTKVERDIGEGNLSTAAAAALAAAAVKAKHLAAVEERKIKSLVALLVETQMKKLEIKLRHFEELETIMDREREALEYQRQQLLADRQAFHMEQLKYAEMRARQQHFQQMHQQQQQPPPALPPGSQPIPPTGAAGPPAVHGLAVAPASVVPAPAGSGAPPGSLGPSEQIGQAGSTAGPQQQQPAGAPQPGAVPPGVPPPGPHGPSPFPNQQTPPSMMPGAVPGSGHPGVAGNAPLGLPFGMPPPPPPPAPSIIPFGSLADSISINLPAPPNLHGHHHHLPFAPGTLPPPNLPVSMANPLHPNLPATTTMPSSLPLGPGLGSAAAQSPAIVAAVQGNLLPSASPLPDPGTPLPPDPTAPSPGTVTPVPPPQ
# UniProt O60641: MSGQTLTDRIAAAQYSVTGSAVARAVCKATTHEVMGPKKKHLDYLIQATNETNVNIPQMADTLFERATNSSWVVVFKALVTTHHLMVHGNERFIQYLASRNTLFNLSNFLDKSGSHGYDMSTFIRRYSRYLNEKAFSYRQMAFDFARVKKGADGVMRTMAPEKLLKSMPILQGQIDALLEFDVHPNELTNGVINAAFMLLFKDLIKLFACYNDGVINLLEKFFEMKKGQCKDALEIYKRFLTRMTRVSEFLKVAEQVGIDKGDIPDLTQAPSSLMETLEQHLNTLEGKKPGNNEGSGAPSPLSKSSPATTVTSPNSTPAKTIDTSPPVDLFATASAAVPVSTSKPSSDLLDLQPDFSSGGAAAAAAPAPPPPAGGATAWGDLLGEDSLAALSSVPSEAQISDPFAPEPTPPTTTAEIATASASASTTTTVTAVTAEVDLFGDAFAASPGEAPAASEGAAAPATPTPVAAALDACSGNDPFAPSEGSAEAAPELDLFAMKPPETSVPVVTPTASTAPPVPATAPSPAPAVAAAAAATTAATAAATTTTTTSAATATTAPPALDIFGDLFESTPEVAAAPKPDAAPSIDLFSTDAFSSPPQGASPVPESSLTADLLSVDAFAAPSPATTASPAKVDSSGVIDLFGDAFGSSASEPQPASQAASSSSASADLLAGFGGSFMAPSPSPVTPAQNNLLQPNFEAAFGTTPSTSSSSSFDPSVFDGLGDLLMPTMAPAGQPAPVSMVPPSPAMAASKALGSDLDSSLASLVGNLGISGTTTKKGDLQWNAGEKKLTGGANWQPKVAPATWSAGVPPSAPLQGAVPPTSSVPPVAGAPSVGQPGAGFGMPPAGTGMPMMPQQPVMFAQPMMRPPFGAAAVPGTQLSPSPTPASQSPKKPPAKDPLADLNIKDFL
# UniProt P09661: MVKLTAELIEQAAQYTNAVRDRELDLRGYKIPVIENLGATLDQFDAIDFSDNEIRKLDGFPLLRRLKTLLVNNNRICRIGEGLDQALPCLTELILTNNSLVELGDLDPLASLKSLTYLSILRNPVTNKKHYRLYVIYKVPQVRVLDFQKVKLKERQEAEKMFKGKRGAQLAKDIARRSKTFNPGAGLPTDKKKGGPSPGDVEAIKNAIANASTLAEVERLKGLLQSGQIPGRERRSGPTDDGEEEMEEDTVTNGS
# UniProt O75940: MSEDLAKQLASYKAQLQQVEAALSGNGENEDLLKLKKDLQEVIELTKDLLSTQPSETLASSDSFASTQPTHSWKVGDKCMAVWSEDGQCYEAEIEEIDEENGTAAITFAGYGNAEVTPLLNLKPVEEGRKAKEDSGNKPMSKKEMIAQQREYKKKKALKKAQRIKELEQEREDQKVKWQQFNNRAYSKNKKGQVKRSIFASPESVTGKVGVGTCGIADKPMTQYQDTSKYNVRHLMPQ
# UniProt Q15036: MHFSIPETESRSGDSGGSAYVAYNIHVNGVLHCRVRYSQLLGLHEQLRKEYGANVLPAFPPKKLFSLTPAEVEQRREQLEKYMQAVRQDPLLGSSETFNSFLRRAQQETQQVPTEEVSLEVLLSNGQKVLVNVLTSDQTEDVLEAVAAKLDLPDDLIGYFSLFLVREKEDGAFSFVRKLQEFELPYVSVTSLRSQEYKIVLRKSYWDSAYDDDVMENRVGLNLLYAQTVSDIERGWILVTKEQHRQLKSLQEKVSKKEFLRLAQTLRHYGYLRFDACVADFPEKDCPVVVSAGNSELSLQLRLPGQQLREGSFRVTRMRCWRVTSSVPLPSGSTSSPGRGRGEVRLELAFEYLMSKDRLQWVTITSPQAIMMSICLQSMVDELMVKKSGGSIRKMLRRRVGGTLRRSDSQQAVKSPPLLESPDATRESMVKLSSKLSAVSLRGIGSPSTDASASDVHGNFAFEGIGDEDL
# UniProt O60493, whole entry, looked up: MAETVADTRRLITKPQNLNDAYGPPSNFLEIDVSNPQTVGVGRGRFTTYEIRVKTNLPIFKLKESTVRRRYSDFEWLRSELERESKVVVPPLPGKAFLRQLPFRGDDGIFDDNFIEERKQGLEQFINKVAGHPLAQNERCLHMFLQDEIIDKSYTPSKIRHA
# UniProt Q9Y5W9: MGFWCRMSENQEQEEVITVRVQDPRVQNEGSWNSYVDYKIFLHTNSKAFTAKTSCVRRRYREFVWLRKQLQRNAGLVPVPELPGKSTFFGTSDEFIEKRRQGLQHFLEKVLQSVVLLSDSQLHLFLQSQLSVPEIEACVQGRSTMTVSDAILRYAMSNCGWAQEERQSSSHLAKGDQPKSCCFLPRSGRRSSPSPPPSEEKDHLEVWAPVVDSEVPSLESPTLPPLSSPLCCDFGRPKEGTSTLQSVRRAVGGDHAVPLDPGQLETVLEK
# UniProt Q6GMV2: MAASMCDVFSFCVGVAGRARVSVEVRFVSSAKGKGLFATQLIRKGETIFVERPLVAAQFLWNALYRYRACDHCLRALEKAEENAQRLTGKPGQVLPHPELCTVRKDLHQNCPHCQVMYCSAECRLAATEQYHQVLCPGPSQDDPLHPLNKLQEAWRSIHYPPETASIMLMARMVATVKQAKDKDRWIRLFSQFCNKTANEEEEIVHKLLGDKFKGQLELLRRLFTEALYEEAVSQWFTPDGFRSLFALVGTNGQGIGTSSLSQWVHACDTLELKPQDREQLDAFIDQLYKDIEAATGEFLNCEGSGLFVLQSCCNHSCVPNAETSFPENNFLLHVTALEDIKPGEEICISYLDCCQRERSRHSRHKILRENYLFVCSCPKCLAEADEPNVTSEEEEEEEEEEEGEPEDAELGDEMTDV
# Key:
# Assay in all cases: log2 fold change, soluble protein after heating vs DMSO (PISA); higher = thermal stabilisation; K562 lysate, 10 uM; active = over 0.2 and 3.5 SD of the protein, either way, in both replicates (recomputed)
# [1] = compound: NCC(=O)Nc1ccc(-n2nc(C(F)(F)F)cc2-c2ccc3c(ccc4ccccc43)c2)cc1
# Outline: (§1)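 Values give the log-two fold change in thermal stability against solvent controls, from duplicates. Crude K562 extract at 1 mg/mL protein, made by dounce homogenisation in PBS pH 7.4 with 1 mM MgCl2, was treated with 10 μM compound for 30 min. After 3 min heating across 48°C-58°C, aliquots were pooled, adjusted to 0.5% NP-40 at 4°C and centrifuged at 21,000xg for 90 min. The supernatant was measured by TMTpro 16plex LC-MS/MS with channel sums equalised.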
# vorinostat = compound: O=C(CCCCCCC(=O)Nc1ccccc1)NO [vorinostat]
# Outline: as §1
# silmitasertib = compound: O=C(O)c1ccc2c(c1)nc(Nc1cccc(Cl)c1)c1ccncc12 [silmitasertib]
# Outline: as §1
# [2] = compound: O=C1NC(=O)C(c2cnc3ccccn23)=C1c1cn2c3c(cc(F)cc13)CN(C(=O)N1CCCCC1)CC2
# Outline: as §1
# entospletinib = compound: c1cn2cc(-c3ccc4cn[nH]c4c3)nc(Nc3ccc(N4CCOCC4)cc3)c2n1 [entospletinib]
# Outline: as §1
Target,log2 fold change [1],log2 fold change (vorinostat),log2 fold change (silmitasertib),log2 fold change [2],log2 fold change (entospletinib)
SNRPD2 (UniProt P62316),inactive: 0,inactive: 0.147,inactive: -0.021,inactive: 0.015,inactive: 0.001
SMIM8 (UniProt Q96KF7),inactive: -0.007,inactive: 0.092,inactive: -0.022,inactive: -0.029,inactive: -0.046
SP100 isoform 4 (UniProt P23497),inactive: -0.02,inactive: 0.087,inactive: 0.044,inactive: 0.01,inactive: -0.003
SOS1 (UniProt Q07889),inactive: 0.044,inactive: -0.057,inactive: -0.096,inactive: 0.034,inactive: 0
SNU13 (UniProt P55769),inactive: -0.026,inactive: -0.022,inactive: -0.016,inactive: 0.001,inactive: 0.002
SMARCAL1 (UniProt Q9NZC9),inactive: -0.011,inactive: -0.211,inactive: -0.006,inactive: 0.005,inactive: -0.026
SMC3 (UniProt Q9UQE7),inactive: -0.023,inactive: 0.06,inactive: -0.009,inactive: -0.017,inactive: 0.012
SPARC (UniProt P09486),inactive: -0.003,inactive: 0.149,inactive: -0.051,inactive: 0.018,inactive: -0.063
SORBS3 (UniProt O60504),inactive: -0.122,active: -0.561,inactive: 0.057,inactive: 0.031,inactive: 0.01
SMARCD1 (UniProt Q96GM5),inactive: 0.02,inactive: -0.159,inactive: 0.015,inactive: 0.013,inactive: -0.019
SNRPB isoform 3 (UniProt P14678),inactive: -0.029,inactive: 0.126,inactive: -0.031,inactive: 0.02,inactive: -0.007
SOX5 (UniProt P35711),inactive: -0.036,inactive: -0.014,inactive: 0.099,inactive: -0.027,inactive: -0.083
SORD (UniProt Q00796),inactive: 0,inactive: 0.126,inactive: -0.013,inactive: -0.019,inactive: -0.003
SNRPD1 (UniProt P62314),inactive: 0.027,inactive: 0.162,inactive: -0.076,inactive: 0.047,inactive: -0.022
SNRNP48 (UniProt Q6IEG0),inactive: -0.13,inactive: 0.022,inactive: -0.095,inactive: 0.045,inactive: 0.127
SMIM20 isoform 2 (UniProt Q8N5G0),inactive: 0.001,inactive: -0.006,inactive: -0.288,inactive: -0.057,
SNX1 (UniProt Q13596),inactive: 0.008,inactive: -0.06,inactive: 0.012,inactive: -0.018,inactive: 0.009
SMG6 (UniProt Q86US8),inactive: 0.119,active: -0.3,inactive: 0.015,inactive: -0.012,inactive: 0.024
SMARCC2 (UniProt Q8TAQ2),inactive: -0.026,inactive: -0.146,inactive: 0.003,inactive: 0.013,inactive: -0.019
SNCA (UniProt P37840),inactive: 0.069,inactive: 0.161,inactive: -0.235,inactive: -0.023,inactive: -0.126
SNTA1 (UniProt Q13424),inactive: -0.043,inactive: 0.051,inactive: 0.029,inactive: -0.035,inactive: 0.018
SND1 (UniProt Q7KZF4),inactive: 0.001,active: -0.414,inactive: 0.048,inactive: 0.013,inactive: 0.013
SMYD2 (UniProt Q9NRG4),inactive: -0.01,inactive: -0.141,inactive: 0.021,inactive: 0.03,inactive: 0.016
SMG1 (UniProt Q96Q15),inactive: 0.005,active: -0.348,inactive: 0.011,inactive: -0.006,inactive: -0.007
SMN1 (UniProt Q16637),inactive: -0.014,active: -0.278,inactive: 0.035,inactive: 0.052,inactive: -0.024
SON isoform 9 (UniProt P18583),inactive: -0.004,inactive: 0.043,inactive: -0.062,inactive: 0.037,inactive: -0.055
SOX7 isoform 2 (UniProt Q9BT81),inactive: -0.009,inactive: -0.381,inactive: 0.157,,

Target,log2 fold change [1],log2 fold change (vorinostat),log2 fold change (silmitasertib),log2 fold change [2],log2 fold change (entospletinib)
SNAP91 (UniProt O60641),inactive: -0.171,inactive: 0.046,inactive: 0.018,inactive: -0.025,inactive: 0.001
SNRPA1 (UniProt P09661),inactive: 0.009,inactive: 0.064,inactive: 0.023,inactive: 0.026,inactive: 0.013
SNAP29 (UniProt O95721),inactive: -0.001,inactive: 0.122,inactive: -0.032,inactive: -0.046,inactive: -0.021
"SNX6, A0A0A0MRI2",inactive: -0.005,active: -0.325,inactive: 0.018,inactive: 0.015,inactive: 0.003
SMNDC1 (UniProt O75940),inactive: 0.041,inactive: -0.045,inactive: -0.026,inactive: -0.037,inactive: -0.016
SNX17 (UniProt Q15036),inactive: 0.055,inactive: -0.022,inactive: 0.003,inactive: -0.048,inactive: 0.008
SNAPC5 (UniProt O75971),inactive: -0.057,,,,
SORBS1 isoform 8 (UniProt Q9BX66),inactive: 0.002,inactive: 0.101,inactive: 0.014,inactive: -0.001,inactive: -0.037
SMC5 (UniProt Q8IY18),inactive: 0.001,inactive: -0.05,inactive: -0.024,inactive: 0.007,inactive: -0.015
SNX3 (UniProt O60493),inactive: -0.066,inactive: -0.05,inactive: 0.029,inactive: -0.07,inactive: -0.002
SMS (UniProt P52788),inactive: -0.035,inactive: 0.066,inactive: 0.007,inactive: 0.008,inactive: -0.012
SNRNP200 (UniProt O75643),inactive: 0.003,inactive: -0.021,inactive: 0.038,inactive: -0.004,inactive: 0.014
SNRPN isoform 2 (UniProt P63162),inactive: -0.177,inactive: 0.216,inactive: -0.163,inactive: -0.008,inactive: 0.023
SMTN isoform 6 (UniProt P53814),inactive: -0.021,inactive: -0.088,inactive: -0.007,inactive: -0.034,inactive: 0.013
SMC6 (UniProt Q96SB8),inactive: -0.006,active: -0.245,inactive: -0.022,inactive: 0.019,inactive: -0.013
SNX11 (UniProt Q9Y5W9),inactive: -0.013,inactive: 0.058,inactive: 0.064,inactive: 0.018,inactive: -0.004
SMARCA4 (UniProt P51532),inactive: 0.015,active: -0.246,inactive: 0.021,inactive: -0.028,inactive: -0.008
SNRNP70 (UniProt P08621),inactive: -0.029,inactive: 0.033,inactive: 0.004,inactive: -0.009,inactive: 0.022
SMYD5 (UniProt Q6GMV2),inactive: 0.035,inactive: -0.011,inactive: -0.011,inactive: 0.017,inactive: 0.006
SNRPD2 (UniProt K7EJB5),inactive: 0.119,active: 0.493,inactive: 0.056,inactive: -0.1,inactive: -0.004
SPAG7 (UniProt O75391),inactive: -0.031,inactive: 0.088,inactive: 0.017,inactive: -0.001,inactive: 0
SNRPE (UniProt P62304),inactive: 0.063,inactive: 0.057,inactive: -0.033,inactive: 0.024,inactive: -0.034
SMARCAD1 isoform 2 (UniProt Q9H4L7),inactive: -0.005,active: -0.27,inactive: 0.012,inactive: 0.014,inactive: 0.013
SOAT1 (UniProt P35610),inactive: 0.014,inactive: 0.005,inactive: 0,inactive: -0.037,inactive: 0.015
SMC2 (UniProt O95347),inactive: 0.014,active: -0.308,inactive: 0.016,inactive: -0.01,inactive: 0.009
SNRPB2 (UniProt P08579),inactive: -0.014,inactive: 0.12,inactive: -0.014,inactive: -0.019,inactive: -0.022
SMCR8 (UniProt Q8TEV9),inactive: -0.076,inactive: 0.044,inactive: 0.01,inactive: 0.012,inactive: -0.092

# Taken from above:
# Value of SNRPB2 (UniProt P08579) under log2 fold change [1]: inactive: -0.014
# Value of SMYD5 (UniProt Q6GMV2) under log2 fold change (silmitasertib): inactive: -0.011

# From the supplement of paper PMC10849652
